Paper PMC2383916

B1: CRY1-VP16 (protein, UniProt P97784 1-606)
chain: MGVNAVHWFRKGLRLHDNPALKECIQGADTIRCVYILDPWFAGSSNVGINRWRFLLQCLEDLDANLRKLNSRLFVIRGQPADVFPRLFKEWNITKLSIEYDSEPFGKERDAAIKKLATEAGVEVIVRISHTLYDLDKIIELNGGQPPLTYKRFQTLVSKMEPLEMPADTITSDVIGKCMTPLSDDHDEKYGVPSLEELGFDTDGLSSAVWPGGETEALTRLERHLERKAWVANFERPRMNANSLLASPTGLSPYLRFGCLSCRLFYFKLTDLYKKVKKNSSPPLSLYGQLLWREFFYTAATNNPRFDKMEGNPICVQIPWDKNPEALAKWAEGRTGFPWIDAIMTQLRQEGWIHHLARHAVACFLTRGDLWISWEEGMKVFEELLLDADWSINAGSWMWLSCSSFFQQFFHCYCPVGFGRRTDPNGDYIRRYLPVLRGFPAKYIYDPWNAPEGIQKVAKCLIGVNYPKPMVNHAEASRLNIERMKQIYQQLSRYRGLGLLASVPSNSNGNGGLMGYAPGENVPSCSSSGNGGLMGYAPGENVPSCSGGNCSQGSGILHYAHGDSQQTHSLKQGRSSAGTGLSSGKRPSQEEDAQSVGPKVQRQSSN
B2: CRY2-VP16 (protein, UniProt Q9R194 1-592)
chain: MAAAAVVAATVPAQSMGADGASSVHWFRKGLRLHDNPALLAAVRGARCVRCVYILDPWFAASSSVGINRWRFLLQSLEDLDTSLRKLNSRLFVVRGQPADVFPRLFKEWGVTRLTFEYDSEPFGKERDAAIMKMAKEAGVEVVTENSHTLYDLDRIIELNGQKPPLTYKRFQALISRMELPKKPAVAVSSQQMESCRAEIQENHDDTYGVPSLEELGFPTEGLGPAVWQGGETEALARLDKHLERKAWVANYERPRMNANSLLASPTGLSPYLRFGCLSCRLFYYRLWDLYKKVKRNSTPPLSLFGQLLWREFFYTAATNNPRFDRMEGNPICIQIPWDRNPEALAKWAEGKTGFPWIDAIMTQLRQEGWIHHLARHAVACFLTRGDLWVSWESGVRVFDELLLDADFSVNAGSWMWLSCSAFFQQFFHCYCPVGFGRRTDPSGDYIRRYLPKLKGFPSRYIYEPWNAPESVQKAAKCIIGVDYPRPIVNHAETSRLNIERMKQIYQQLSRYRGLCLLASVPSCVEDLSHPVAEPGSSQAGSISNTGPRALSSGPASPKRKLEAAEEPPGEELTKRARVTEMPTQEPASKDS

Columns and labels:
[1] = biological target: Gal4 DNA binding domain alone; experiment: two-hybrid; mammalian two-hybrid in HER911 cells: Gal4 DBD fusion and VP16 fusion co-transfected with the GAL4-based luciferase reporter pFR-luc and pCMV-lacZ; luciferase normalised to beta-galactosidase; reporter alone set to 1
[2] = biological target: Gal4 DNA binding domain alone; experiment: two-hybrid; mammalian two-hybrid in cos-7 cells: Gal4 DBD fusion and VP16 fusion co-transfected with pFR-luc and pCMV-lacZ; reporter alone set to 1

Binder	binding [1]	binding [2]
B1	no binding	no binding
B2	no binding	no binding

These are yes or no findings as the source states them, for the method shown.
